Measurements reported in the supplement of paper PMC10849652.
The other results are listed elsewhere or left out.

The chains behind the UniProt entries cited, without tags or fusion partners. Where a name states a change or a piece, a line headed by the entry shows the natural chain unless it says otherwise.
UniProt Q9BTY2: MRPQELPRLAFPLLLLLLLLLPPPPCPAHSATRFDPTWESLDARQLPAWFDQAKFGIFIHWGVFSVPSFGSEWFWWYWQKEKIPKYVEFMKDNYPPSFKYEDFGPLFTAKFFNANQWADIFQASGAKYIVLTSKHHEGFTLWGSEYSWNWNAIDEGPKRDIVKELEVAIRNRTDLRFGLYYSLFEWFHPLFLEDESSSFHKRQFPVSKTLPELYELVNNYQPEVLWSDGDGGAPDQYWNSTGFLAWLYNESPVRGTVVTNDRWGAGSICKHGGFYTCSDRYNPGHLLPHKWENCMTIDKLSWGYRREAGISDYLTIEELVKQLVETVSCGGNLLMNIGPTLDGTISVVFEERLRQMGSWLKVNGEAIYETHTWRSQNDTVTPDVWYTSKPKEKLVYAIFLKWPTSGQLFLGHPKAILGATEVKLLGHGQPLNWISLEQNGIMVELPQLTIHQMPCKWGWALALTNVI
UniProt Q9UJY4: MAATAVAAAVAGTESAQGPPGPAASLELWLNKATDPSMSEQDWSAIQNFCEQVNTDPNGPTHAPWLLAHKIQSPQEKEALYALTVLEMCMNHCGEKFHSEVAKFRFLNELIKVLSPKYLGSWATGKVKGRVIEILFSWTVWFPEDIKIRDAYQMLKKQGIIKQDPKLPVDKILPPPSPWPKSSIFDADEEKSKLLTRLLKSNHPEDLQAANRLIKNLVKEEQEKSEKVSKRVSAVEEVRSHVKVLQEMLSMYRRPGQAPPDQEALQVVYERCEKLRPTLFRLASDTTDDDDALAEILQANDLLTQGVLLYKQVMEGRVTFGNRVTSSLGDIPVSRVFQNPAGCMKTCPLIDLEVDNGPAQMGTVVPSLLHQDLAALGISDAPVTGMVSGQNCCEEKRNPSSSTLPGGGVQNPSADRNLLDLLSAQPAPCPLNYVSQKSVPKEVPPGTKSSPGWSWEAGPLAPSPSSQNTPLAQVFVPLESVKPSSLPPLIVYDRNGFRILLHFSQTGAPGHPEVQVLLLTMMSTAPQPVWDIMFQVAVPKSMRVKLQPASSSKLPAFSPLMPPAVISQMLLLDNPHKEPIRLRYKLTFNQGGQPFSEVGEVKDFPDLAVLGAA
UniProt P54803: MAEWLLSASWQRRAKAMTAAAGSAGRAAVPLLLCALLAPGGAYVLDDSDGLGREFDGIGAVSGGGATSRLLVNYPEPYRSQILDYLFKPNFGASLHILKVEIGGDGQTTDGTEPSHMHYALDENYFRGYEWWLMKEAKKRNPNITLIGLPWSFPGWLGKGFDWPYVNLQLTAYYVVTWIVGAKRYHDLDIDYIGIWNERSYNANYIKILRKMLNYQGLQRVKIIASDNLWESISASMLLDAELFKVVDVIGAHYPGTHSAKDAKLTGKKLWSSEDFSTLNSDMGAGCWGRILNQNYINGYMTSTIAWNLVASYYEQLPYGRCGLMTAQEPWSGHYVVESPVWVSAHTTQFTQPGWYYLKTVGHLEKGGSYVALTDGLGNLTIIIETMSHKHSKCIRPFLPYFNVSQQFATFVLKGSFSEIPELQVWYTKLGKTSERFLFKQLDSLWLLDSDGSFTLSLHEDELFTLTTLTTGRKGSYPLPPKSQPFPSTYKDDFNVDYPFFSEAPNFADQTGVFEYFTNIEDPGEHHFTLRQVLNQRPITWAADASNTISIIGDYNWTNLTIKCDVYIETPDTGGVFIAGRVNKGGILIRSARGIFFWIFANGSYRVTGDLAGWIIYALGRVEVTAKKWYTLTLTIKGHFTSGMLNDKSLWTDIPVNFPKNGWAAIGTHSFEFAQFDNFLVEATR
UniProt Q92947: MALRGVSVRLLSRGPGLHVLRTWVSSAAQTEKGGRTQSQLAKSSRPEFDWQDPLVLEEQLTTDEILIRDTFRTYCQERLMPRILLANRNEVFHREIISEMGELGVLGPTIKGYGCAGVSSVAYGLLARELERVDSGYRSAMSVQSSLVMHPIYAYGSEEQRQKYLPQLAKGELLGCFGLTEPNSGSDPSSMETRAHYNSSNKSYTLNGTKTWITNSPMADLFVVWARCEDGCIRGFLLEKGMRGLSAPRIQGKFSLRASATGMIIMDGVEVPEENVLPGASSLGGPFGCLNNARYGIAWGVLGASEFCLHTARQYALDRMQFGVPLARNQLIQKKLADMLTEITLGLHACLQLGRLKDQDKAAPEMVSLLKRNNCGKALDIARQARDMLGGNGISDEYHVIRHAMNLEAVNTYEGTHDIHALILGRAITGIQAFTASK
UniProt Q86SF2: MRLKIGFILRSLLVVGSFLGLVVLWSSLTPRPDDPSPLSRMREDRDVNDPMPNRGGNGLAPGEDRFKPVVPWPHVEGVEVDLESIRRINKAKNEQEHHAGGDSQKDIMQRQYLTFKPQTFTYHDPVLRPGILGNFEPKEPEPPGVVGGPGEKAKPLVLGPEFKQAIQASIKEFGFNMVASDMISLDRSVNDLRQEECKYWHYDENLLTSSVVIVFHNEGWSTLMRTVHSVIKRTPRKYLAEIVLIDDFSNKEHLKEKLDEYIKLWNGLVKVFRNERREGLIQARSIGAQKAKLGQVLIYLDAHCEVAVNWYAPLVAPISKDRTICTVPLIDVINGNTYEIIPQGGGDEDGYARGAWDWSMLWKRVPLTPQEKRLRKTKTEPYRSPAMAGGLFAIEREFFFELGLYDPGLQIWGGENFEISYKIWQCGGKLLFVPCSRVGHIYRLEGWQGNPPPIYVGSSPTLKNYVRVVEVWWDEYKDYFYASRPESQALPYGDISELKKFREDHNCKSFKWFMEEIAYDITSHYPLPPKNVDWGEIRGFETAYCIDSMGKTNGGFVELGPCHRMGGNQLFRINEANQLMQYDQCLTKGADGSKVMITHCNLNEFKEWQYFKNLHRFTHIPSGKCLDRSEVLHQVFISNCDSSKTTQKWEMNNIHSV
UniProt Q9UPW0: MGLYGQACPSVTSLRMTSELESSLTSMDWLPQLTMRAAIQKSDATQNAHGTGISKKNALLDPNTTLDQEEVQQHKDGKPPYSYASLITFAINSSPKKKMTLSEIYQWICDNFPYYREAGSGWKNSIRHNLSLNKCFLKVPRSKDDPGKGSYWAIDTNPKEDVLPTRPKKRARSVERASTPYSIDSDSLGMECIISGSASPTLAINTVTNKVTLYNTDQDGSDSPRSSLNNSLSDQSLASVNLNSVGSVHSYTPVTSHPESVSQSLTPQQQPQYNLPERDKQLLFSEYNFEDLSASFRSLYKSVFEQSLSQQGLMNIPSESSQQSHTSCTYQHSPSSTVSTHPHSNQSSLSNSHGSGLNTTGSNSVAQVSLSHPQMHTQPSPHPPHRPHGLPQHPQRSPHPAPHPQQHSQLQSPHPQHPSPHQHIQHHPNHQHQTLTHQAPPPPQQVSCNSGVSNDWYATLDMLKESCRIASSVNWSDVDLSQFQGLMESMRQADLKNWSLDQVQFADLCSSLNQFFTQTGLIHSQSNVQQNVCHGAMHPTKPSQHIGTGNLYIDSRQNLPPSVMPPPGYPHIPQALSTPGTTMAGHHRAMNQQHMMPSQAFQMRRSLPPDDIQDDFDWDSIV
UniProt P60520, whole entry, looked up: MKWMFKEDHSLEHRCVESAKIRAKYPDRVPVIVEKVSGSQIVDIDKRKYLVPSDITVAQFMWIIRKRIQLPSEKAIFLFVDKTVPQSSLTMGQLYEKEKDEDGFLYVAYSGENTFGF
UniProt Q16595: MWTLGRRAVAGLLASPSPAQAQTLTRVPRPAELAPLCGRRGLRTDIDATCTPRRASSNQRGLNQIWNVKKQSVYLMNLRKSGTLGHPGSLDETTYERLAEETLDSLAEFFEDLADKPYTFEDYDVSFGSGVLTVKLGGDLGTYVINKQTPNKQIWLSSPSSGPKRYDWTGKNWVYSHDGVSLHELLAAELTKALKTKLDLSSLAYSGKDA
UniProt P0CL80: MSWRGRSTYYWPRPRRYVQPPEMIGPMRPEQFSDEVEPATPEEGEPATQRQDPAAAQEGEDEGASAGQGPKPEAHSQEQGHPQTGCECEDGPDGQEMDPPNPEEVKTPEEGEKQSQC
UniProt Q8NB37: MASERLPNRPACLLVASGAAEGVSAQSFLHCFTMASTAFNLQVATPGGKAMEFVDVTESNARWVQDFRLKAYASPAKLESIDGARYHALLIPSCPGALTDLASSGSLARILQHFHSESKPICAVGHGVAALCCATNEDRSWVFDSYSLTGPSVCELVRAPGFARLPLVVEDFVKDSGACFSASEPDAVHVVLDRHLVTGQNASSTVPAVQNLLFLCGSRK
UniProt Q6NT46: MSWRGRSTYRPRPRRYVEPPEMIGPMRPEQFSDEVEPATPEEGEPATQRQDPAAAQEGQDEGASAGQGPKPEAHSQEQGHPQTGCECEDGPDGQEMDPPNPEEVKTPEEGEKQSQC
UniProt P51570: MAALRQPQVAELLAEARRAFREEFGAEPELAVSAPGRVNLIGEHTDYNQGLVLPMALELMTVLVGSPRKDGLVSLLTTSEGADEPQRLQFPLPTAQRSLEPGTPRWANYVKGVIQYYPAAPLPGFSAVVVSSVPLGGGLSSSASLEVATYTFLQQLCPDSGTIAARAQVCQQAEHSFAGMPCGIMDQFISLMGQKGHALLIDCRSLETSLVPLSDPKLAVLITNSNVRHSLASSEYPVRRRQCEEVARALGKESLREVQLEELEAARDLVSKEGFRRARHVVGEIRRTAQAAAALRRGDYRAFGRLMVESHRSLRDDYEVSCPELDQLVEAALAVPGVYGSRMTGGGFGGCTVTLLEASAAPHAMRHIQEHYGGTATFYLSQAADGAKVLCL
UniProt Q06546: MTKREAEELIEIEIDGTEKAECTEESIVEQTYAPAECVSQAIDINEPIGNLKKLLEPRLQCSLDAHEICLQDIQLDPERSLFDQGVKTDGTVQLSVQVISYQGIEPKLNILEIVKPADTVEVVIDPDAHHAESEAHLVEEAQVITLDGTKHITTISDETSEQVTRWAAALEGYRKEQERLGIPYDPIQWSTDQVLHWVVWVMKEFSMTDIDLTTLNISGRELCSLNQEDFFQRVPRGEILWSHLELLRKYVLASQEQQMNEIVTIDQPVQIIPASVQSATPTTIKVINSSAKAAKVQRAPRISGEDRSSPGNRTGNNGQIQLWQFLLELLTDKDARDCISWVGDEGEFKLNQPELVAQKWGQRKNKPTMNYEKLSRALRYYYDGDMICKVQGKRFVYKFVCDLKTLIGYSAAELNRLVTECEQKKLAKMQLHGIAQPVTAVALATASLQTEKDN
UniProt P02792: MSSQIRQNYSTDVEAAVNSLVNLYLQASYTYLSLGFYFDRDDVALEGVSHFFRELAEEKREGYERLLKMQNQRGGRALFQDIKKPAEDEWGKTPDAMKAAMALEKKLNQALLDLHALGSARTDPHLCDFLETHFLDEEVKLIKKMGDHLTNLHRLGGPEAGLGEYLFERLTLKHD

Key:
Experiment in all cases: log2 fold change, soluble protein after heating vs DMSO (PISA); higher = thermal stabilisation; K562 lysate, 10 uM; active = over 0.2 and 3.5 SD of the protein, either way, in both replicates (recomputed)
[1] = compound: C#Cc1cccc(Nc2ncnc3cc(OCCOC)c(OCCOC)cc23)c1 [erlotinib]
Procedure, shortened: (§1)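 The values are log-two fold changes in thermal stability compared with solvent controls and come from duplicates. They were obtained by TMTpro 16plex LC-MS/MS, with channel sums equalised, on the supernatant after 21,000xg for 90 min. That supernatant came from crude K562 extract at 1 mg/mL protein treated with 10 μM compound for 30 min, heated for 3 min across 48°C-58°C, pooled and brought to 0.5% NP-40 at 4°C.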

[2] = compound: C/C(=N\NC(=O)C1=CC(=CC=C1)S(=O)(=O)N2CCOCC2)/C3=C(C=CC(=C3)Cl)O
Procedure, shortened: as §1

[3] = compound: C1=CC(=CC=C1C2=NC3=C(N2)C=C(C=C3)C(=O)N)OC4=CC=C(C=C4)Cl
Procedure, shortened: as §1

[4] = compound: C1=CC2=C(C=CC(=C2)/C=C\3/C(=O)NC(=NCC4=CC=CS4)S3)N=C1
Procedure, shortened: as §1

[5] = compound: C1=CC2=NC=CN=C2C=C1/C=C/3\C(=O)NC(=O)S3
Procedure, shortened: as §1

[6] = compound: C1=CC=C(C=C1)C2=NC(=C(N2)C3=CC=NC=C3)C4=CC(=C(C=C4)Cl)O
Procedure, shortened: as §1

[7] = compound: C1=CC=C2C(=C1)C3=NNC4=CC=CC(=C43)C2=O
Procedure, shortened: as §1

[8] = compound: C1CCN(C1)C(=O)NC2=CC=CC(=C2)NC3=NC=C(C(=N3)NCCC4=CN=CN4)Br
Procedure, shortened: as §1

[9] = compound: C1CN(CCC1(CC2=CC=C(C=C2)Cl)N)C3=NC=NC4=C3C=CN4
Procedure, shortened: as §1

[10] = compound: C1COCCN1CCN2C3=CC=CC=C3N=C2NC(=O)C4=CC(=CC=C4)[N+](=O)[O-] [IRAK-1-4 Inhibitor I]
Procedure, shortened: as §1

[11] = compound: C=CC(=O)N1CCC[C@@H](n2nc(-c3ccc(Oc4ccccc4)cc3)c3c(N)ncnc32)C1 [ibrutinib]
Procedure, shortened: as §1

[12] = compound: CC(=O)c1cnc2ccc(-c3cc(Cl)c(O)c(Cl)c3)nc2c1N[C@H]1CC[C@H](CN(C)C)CC1
Procedure, shortened: as §1

[13] = compound: CC(C)(C)Cn1c(N)nc2ccc(-c3[nH]c(C(C)(C)C)nc3-c3ccc(F)cc3)nc21 [ralimetinib]
Procedure, shortened: as §1

[14] = compound: CC(C)(O)CC(=O)NCCn1ccc2ncnc(Nc3ccc(Oc4cccc(C(F)(F)F)c4)c(Cl)c3)c21
Procedure, shortened: as §1

[15] = compound: CC(C)C1=C2N=C(C=C(N2N=C1)NCC3=CC=CC=C3)NCCCCCCN
Procedure, shortened: as §1

[16] = compound: CC1=C(C(CC(=O)N1)C2=CC=C(C=C2)C(F)(F)F)C(=O)NC3=C(C=C4C(=C3)C=NN4)F
Procedure, shortened: as §1

[17] = compound: CC1=C(C2=C(C=C1)C(=O)C3=CC=CC=C3N2CCCN)C
Procedure, shortened: as §1

[18] = compound: CC1=C(C=C(C=C1)NC(=O)C2=CC(=CC=C2)C(C)(C)C#N)NC3=CC4=C(C=C3)N=CN(C4=O)C
Procedure, shortened: as §1

[19] = compound: CC1=C(C=C(C=C1)NC(=O)C2=CC(=CC=C2)N(C)C)NC(=O)C3=CC=C(C=C3)O
Procedure, shortened: as §1

[20] = compound: CC1=CC=C(C=C1)SC2=C3C=C(SC3=CN=C2)C(=O)N
Procedure, shortened: as §1

Measured: log2 fold change

FUCA2 (UniProt Q9BTY2)
inactive: [1] -0.014 | [2] 0.02 | [3] -0.002 | [4] 0 | [5] 0.004 | [6] 0.014 | [7] 0.01 | [8] 0.01 | [9] -0.013 | [10] -0.006 | [11] 0.029 | [12] 0.008 | [13] -0.026 | [14] -0.021 | [15] 0.013 | [16] -0.016 | [17] -0.03 | [18] 0.006 | [19] -0.011 | [20] 0.046

GGA2 (UniProt Q9UJY4)
inactive: [1] -0.014 | [2] 0.042 | [3] 0.064 | [4] 0.016 | [5] 0.019 | [6] 0.014 | [7] -0.054 | [8] 0.074 | [9] 0.034 | [10] 0.01 | [11] -0.007 | [12] 0 | [13] 0.026 | [14] -0.01 | [15] -0.062 | [16] 0.099 | [17] 0.01 | [18] -0.024 | [19] 0.031 | [20] -0.021

GALC (UniProt P54803)
inactive: [1] 0.005 | [2] 0.04 | [3] 0.008 | [4] 0.043 | [5] -0.033 | [6] 0.001 | [7] -0.033 | [8] 0.031 | [9] 0.059 | [10] -0.005 | [11] 0.037 | [12] -0.006 | [13] 0.087 | [14] -0.022 | [15] -0.006 | [16] 0.08 | [17] -0.005 | [18] 0.123 | [19] -0.052 | [20] 0.01

GCDH (UniProt Q92947)
inactive: [1] -0.038 | [2] 0.1 | [3] -0.023 | [4] 0.051 | [5] 0.089 | [6] -0.027 | [7] 0.009 | [8] 0 | [9] 0 | [10] 0.011 | [11] -0.046 | [12] 0.028 | [13] -0.04 | [14] 0.014 | [15] -0.051 | [16] 0.069 | [17] -0.019 | [18] 0.086 | [19] -0.017 | [20] -0.03

Quoted at random: 2 records from the list.
GALC (UniProt P54803)
inactive: [1] 0.005 | [2] 0.04 | [3] 0.008 | [4] 0.043 | [5] -0.033 | [6] 0.001 | [7] -0.033 | [8] 0.031 | [9] 0.059 | [10] -0.005 | [11] 0.037 | [12] -0.006 | [13] 0.087 | [14] -0.022 | [15] -0.006 | [16] 0.08 | [17] -0.005 | [18] 0.123 | [19] -0.052 | [20] 0.01

FUCA2 (UniProt Q9BTY2)
inactive: [1] -0.014 | [2] 0.02 | [3] -0.002 | [4] 0 | [5] 0.004 | [6] 0.014 | [7] 0.01 | [8] 0.01 | [9] -0.013 | [10] -0.006 | [11] 0.029 | [12] 0.008 | [13] -0.026 | [14] -0.021 | [15] 0.013 | [16] -0.016 | [17] -0.03 | [18] 0.006 | [19] -0.011 | [20] 0.046

Continued:

GALNT7 (UniProt Q86SF2)
inactive: [1] 0 | [2] -0.033 | [3] -0.038 | [4] -0.013 | [5] -0.025 | [6] -0.028 | [7] -0.015 | [8] -0.023 | [9] -0.023 | [10] 0.025 | [11] 0.01 | [12] 0.03 | [13] 0.029 | [14] -0.056 | [15] -0.026 | [16] 0.036 | [17] -0.02 | [18] 0.024 | [19] -0.004 | [20] 0.002

GADD45GIP1 (UniProt Q8TAE8)
inactive: [1] -0.006 | [2] -0.006 | [3] -0.004 | [4] 0.002 | [5] 0.01 | [6] -0.001 | [7] -0.101 | [8] -0.014 | [9] 0.057 | [10] -0.025 | [11] 0.024 | [12] -0.009 | [13] 0.013 | [14] 0.004 | [15] -0.013 | [16] 0.044 | [17] -0.094 | [18] 0.018 | [19] -0.029 | [20] 0.049

FOXJ3 (UniProt Q9UPW0)
inactive: [1] 0.018 | [2] 0.085 | [3] -0.015 | [4] -0.001 | [5] 0.014 | [6] 0.032 | [7] -0.01 | [8] -0.035 | [9] -0.013 | [10] -0.025 | [11] -0.003 | [12] 0.002 | [13] -0.021 | [14] -0.08 | [15] 0.047 | [16] -0.026 | [17] -0.022 | [18] 0.071 | [19] 0.025 | [20] 0.006

GABARAPL2 (UniProt P60520)
inactive: [1] -0.003 | [2] -0.206 | [3] 0.003 | [4] -0.025 | [5] -0.004 | [6] -0.003 | [7] -0.003 | [8] -0.026 | [9] -0.034 | [10] 0.003 | [11] -0.025 | [12] 0.009 | [13] -0.063 | [14] -0.018 | [15] -0.019 | [16] -0.034 | [17] -0.021 | [18] -0.04 | [19] -0.054 | [20] 0.014

FXN (UniProt Q16595)
inactive: [1] 0.019 | [2] 0.021 | [3] -0.04 | [4] -0.006 | [5] -0.051 | [6] -0.01 | [7] -0.029 | [8] 0.054 | [9] 0.106 | [10] -0.004 | [11] 0.047 | [12] -0.041 | [13] -0.044 | [14] -0.01 | [15] 0.008 | [16] -0.067 | [17] 0.018 | [18] 0.042 | [19] -0.023 | [20] 0.071

GAGE12F (UniProt P0CL80)
inactive: [1] 0.021 | [2] -0.017 | [3] 0.07 | [4] 0.06 | [5] 0.047 | [6] -0.006 | [7] 0.033 | [8] 0.021 | [9] 0.083 | [10] 0.047 | [11] 0.074 | [12] -0.048 | [13] 0.05 | [14] -0.079 | [15] 0.042 | [16] -0.026 | [17] -0.033 | [18] 0.03 | [19] 0.028 | [20] 0.004

GATD1 (UniProt Q8NB37)
inactive: [1] 0.014 | [2] 0.054 | [3] -0.001 | [4] -0.011 | [5] 0.017 | [6] 0.024 | [7] 0.042 | [8] 0.038 | [9] 0 | [10] 0.024 | [11] 0.021 | [12] 0.022 | [13] -0.018 | [14] -0.033 | [15] 0.069 | [16] 0.036 | [17] 0.008 | [18] -0.011 | [19] -0.067 | [20] -0.022

FRG1 (UniProt Q14331)
inactive: [1] 0.006 | [2] 0.004 | [3] -0.039 | [4] 0.025 | [5] -0.049 | [6] -0.032 | [7] -0.039 | [8] -0.061 | [9] -0.016 | [10] -0.06 | [11] 0.011 | [12] -0.007 | [13] -0.027 | [14] -0.023 | [15] 0.042 | [16] 0.004 | [17] -0.005 | [18] -0.031 | [19] 0.025 | [20] 0.024

GAGE2A (UniProt Q6NT46)
inactive: [1] 0.058 | [2] -0.292 | [3] 0.019 | [4] -0.037 | [5] -0.02 | [6] 0.012 | [7] 0 | [8] 0.05 | [9] 0.085 | [10] 0.032 | [11] 0.036 | [12] -0.037 | [13] 0.058 | [14] -0.065 | [15] -0.02 | [16] 0.025 | [17] -0.054 | [18] 0.03 | [19] -0.063 | [20] -0.006

GALK1 isoform 2 (UniProt P51570)
inactive: [1] 0.021 | [2] 0.022 | [3] 0.01 | [4] -0.076 | [5] -0.024 | [6] -0.015 | [7] -0.031 | [8] 0.023 | [9] 0.058 | [10] 0.042 | [11] 0.002 | [12] 0.032 | [13] -0.013 | [14] -0.001 | [15] -0.006 | [16] -0.021 | [17] -0.026 | [18] 0.002 | [19] -0.001 | [20] 0.04

GABPA (UniProt Q06546)
inactive: [1] 0.008 | [2] -0.054 | [3] -0.018 | [4] -0.008 | [5] 0.009 | [6] -0.007 | [7] 0.014 | [8] -0.012 | [9] -0.021 | [10] 0.009 | [11] -0.004 | [12] 0.008 | [13] 0.041 | [14] -0.017 | [15] -0.007 | [16] -0.008 | [17] 0.025 | [18] 0.028 | [19] 0 | [20] 0.017

FTL (UniProt P02792)
inactive: [1] -0.14 | [2] -0.599 | [3] -0.077 | [4] -0.027 | [5] -0.006 | [6] 0.11 | [7] 0.012 | [8] -0.063 | [9] -0.034 | [10] 0.169 | [11] -0.026 | [12] -0.025 | [13] -0.146 | [14] -0.257 | [15] 0.023 | [16] 0.027 | [17] 0.041 | [18] 0.023 | [19] 0.033 | [20] 0.053
